Two substances from publication PMC7237453 can be followed below.

These are yes or no findings as the source states them, for the method shown. Binding can be weak; no strength is given. Tags and fused reporters may be left off the sequences shown. For some assays here: In cells and extracts the contact can be indirect.

The target of assay [1] is T1, FLAG-tagged Pit-1 (human) (UniProt P28069).
T1 sequence: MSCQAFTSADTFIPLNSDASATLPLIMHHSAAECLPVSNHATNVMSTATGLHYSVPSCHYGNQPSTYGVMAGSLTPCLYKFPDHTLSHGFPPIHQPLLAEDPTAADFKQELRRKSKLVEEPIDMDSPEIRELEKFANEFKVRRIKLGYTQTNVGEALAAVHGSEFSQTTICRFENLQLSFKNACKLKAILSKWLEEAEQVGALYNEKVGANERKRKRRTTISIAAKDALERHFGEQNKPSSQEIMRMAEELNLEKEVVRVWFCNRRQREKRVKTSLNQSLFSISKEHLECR
In words: co-IP; HEK293 cells co-transfected with FLAG-Pit-1 and HA-cryptic or HA-canonical ESRRG; cell extract immunoprecipitated with FLAG antibody on protein G agarose; 50 mM Tris, 150 mM NaCl, 0.1% Triton X-100; 4 °C, 16 h; anti-HA immunoblot.

Assay [2] addresses T2, GST-Pit-1 fusion protein (pituitary-specific positive transcription factor 1 fused to glutathione S-transferase) (human) (UniProt P28069).
T2 sequence: T1 sequence
Put plainly: pull-down; GST-Pit-1 (500 ug) immobilised on GST-tag purification resin, incubated with 500 ug HIS-cryptic or HIS-canonical ESRRG; 50 mM Tris, 150 mM NaCl, 0.1% Triton X-100, 10 mM EDTA, pH 8.0; 4 °C, 16 h; anti-HIS immunoblot; GST protein as negative control; both purified.

For the substance HA-tagged cryptic ESRRG (human), the binding entry in assay [1] is recorded as “binds”. “HIS-tagged cryptic ESRRG (estrogen related receptor gamma, cryptic splice form) (human)”: the binding entry in assay [2] is given as “binds”.
